# From the supplement of paper PMC10032668
# Sequences of proteins named here, by UniProt entry; tags and fusion partners are left off.
# DYNLL1, P63167, UniProt P63167, whole entry: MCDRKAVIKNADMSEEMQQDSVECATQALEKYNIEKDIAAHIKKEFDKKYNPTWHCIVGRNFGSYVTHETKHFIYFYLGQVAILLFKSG
# MORF4L2, Q15014, UniProt Q15014, whole entry: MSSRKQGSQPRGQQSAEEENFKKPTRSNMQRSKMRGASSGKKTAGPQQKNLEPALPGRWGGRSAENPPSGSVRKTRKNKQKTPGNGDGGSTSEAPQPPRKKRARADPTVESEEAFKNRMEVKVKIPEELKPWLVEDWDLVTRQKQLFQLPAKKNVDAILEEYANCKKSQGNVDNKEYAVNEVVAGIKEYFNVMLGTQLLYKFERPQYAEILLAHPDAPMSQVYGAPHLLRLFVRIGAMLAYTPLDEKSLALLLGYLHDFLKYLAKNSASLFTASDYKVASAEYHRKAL
# MPG, P29372, UniProt P29372, whole entry: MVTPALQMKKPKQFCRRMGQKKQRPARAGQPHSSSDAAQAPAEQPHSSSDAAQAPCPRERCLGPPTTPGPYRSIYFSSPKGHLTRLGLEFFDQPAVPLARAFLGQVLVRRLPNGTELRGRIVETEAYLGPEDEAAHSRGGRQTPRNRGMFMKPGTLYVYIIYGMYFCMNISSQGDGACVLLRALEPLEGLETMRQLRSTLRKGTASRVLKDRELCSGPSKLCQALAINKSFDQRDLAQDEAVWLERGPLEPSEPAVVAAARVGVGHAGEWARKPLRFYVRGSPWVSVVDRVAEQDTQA
# NFRKB, Q6P4R8, UniProt Q6P4R8, whole entry: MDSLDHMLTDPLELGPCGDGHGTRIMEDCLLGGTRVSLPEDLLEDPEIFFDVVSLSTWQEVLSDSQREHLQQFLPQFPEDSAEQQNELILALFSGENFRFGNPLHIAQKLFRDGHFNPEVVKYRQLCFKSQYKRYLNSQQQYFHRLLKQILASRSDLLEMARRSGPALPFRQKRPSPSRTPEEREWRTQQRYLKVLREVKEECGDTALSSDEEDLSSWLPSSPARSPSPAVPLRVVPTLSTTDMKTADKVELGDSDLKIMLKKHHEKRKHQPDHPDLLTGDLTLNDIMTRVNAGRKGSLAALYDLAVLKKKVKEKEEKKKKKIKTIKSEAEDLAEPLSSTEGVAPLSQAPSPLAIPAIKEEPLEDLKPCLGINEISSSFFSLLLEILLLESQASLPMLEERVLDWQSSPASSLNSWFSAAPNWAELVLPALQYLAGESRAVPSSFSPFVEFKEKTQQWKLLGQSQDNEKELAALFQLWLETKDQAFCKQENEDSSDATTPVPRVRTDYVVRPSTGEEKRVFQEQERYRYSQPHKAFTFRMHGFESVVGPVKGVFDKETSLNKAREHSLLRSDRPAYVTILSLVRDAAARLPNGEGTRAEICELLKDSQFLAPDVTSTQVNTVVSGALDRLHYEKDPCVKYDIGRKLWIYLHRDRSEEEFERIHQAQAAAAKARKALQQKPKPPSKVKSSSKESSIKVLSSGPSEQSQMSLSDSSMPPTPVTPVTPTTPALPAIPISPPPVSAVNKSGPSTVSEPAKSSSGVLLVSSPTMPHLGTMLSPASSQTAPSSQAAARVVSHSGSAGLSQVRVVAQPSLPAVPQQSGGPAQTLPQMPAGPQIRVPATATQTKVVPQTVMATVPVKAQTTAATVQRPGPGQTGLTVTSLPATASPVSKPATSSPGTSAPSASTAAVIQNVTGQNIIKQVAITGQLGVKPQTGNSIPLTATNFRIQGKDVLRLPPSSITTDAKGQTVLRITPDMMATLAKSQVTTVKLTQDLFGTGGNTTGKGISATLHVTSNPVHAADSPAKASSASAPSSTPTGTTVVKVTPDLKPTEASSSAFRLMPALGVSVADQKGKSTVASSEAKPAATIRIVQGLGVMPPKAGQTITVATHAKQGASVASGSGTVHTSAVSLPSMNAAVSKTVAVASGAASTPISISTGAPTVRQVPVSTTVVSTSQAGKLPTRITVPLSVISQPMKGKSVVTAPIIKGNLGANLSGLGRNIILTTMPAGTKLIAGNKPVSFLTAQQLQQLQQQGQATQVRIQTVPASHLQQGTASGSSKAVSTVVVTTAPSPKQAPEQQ
# YBX1, P67809, UniProt P67809, whole entry: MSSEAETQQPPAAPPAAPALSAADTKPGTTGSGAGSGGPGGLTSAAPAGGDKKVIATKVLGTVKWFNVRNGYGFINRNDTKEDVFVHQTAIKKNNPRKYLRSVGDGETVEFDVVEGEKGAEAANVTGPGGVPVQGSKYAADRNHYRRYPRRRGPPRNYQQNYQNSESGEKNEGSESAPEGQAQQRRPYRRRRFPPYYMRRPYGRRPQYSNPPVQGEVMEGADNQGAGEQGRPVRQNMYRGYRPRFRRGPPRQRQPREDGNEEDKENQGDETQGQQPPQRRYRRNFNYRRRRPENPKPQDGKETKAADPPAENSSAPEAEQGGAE
# YBX3, P16989, UniProt P16989, whole entry: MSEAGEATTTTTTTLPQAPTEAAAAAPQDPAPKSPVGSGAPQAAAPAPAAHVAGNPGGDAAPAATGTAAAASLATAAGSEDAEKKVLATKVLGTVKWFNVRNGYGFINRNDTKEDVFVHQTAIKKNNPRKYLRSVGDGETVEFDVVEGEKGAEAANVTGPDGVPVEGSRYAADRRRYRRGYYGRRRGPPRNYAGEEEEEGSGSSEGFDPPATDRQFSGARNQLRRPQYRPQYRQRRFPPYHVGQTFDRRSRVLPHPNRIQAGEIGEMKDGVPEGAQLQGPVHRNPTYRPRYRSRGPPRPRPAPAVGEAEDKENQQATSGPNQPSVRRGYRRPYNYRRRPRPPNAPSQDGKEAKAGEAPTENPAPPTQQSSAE
# ± gives the standard deviation of the averaged measurements. The list shows a part of the results. Only hits are listed; about a third recur on repeated control peptides.
# B1: AC093642.6 (peptide)
# chain: MGPSSGFLDVQLQA
# Columns and labels:
# Test in all cases: PRISMA enrichment of interactor (LFQ) in peptide spot vs all other peptide spots (log2 fold change); higher = stronger / more specific binding of the interactor to the peptide
# ALYREF, Q86V81 = target: ALYREF, Q86V81
# Method: (§1)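 PRISMA: 221 full-length sORF-encoded peptides (3-15 aa), plus SOS1/GLUT1 control peptides, were spot-synthesized on cellulose membranes in triplicate. Membranes were incubated with HEK293T lysate, and bound proteins were identified by LC-MS/MS with LFQ. Enrichment is the log2 fold change versus all other peptide spots; only significant interactors are listed (cutoff c=6, x0=2.8).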
# BUD23, O43709 = target: BUD23, O43709
# Method: as §1
# C11orf98, E9PRG8 = target: C11orf98, E9PRG8
# Method: as §1
# C19orf53, Q9UNZ5 = target: C19orf53, Q9UNZ5
# Method: as §1
# CBX4, O00257 = target: CBX4, O00257
# Method: as §1
# CCDC137, Q6PK04 = target: CCDC137, Q6PK04
# Method: as §1
# CCDC59, Q9P031 = target: CCDC59, Q9P031
# Method: as §1
# CFAP20, Q9Y6A4 = target: CFAP20, Q9Y6A4
# Method: as §1
# CSNK1E, P49674 = target: CSNK1E, P49674
# Method: as §1
# DIMT1, Q9UNQ2 = target: DIMT1, Q9UNQ2
# Method: as §1
# DNAJA3, Q96EY1 = target: DNAJA3, Q96EY1
# Method: as §1
# DYNLL1, P63167 = target: DYNLL1, P63167
# Method: as §1
# EMG1, Q92979 = target: EMG1, Q92979
# Method: as §1
# FYTTD1, Q96QD9 = target: FYTTD1, Q96QD9
# Method: as §1
# LSM14B, Q9BX40 = target: LSM14B, Q9BX40
# Method: as §1
# MAP7, Q14244 = target: MAP7, Q14244
# Method: as §1
# MAP7D1, Q3KQU3 = target: MAP7D1, Q3KQU3
# Method: as §1
# MAZ, P56270 = target: MAZ, P56270
# Method: as §1
# MORF4L2, Q15014 = target: MORF4L2, Q15014
# Method: as §1
# MPG, P29372 = target: MPG, P29372
# Method: as §1
# NFRKB, Q6P4R8 = target: NFRKB, Q6P4R8
# Method: as §1
# NIFK, Q9BYG3 = target: NIFK, Q9BYG3
# Method: as §1
# NOL10, Q9BSC4 = target: NOL10, Q9BSC4
# Method: as §1
# NOL12, Q9UGY1 = target: NOL12, Q9UGY1
# Method: as §1
# NOP53, Q9NZM5 = target: NOP53, Q9NZM5
# Method: as §1
# NTHL1, P78549 = target: NTHL1, P78549
# Method: as §1
# NUDT16L1, Q9BRJ7 = target: NUDT16L1, Q9BRJ7
# Method: as §1
# NUSAP1, Q9BXS6 = target: NUSAP1, Q9BXS6
# Method: as §1
# NXF1, Q9UBU9 = target: NXF1, Q9UBU9
# Method: as §1
# POLDIP2, Q9Y2S7 = target: POLDIP2, Q9Y2S7
# Method: as §1
# PRR3, P79522 = target: PRR3, P79522
# Method: as §1
# PRRC2A, P48634 = target: PRRC2A, P48634
# Method: as §1
# PRRC2C, Q9Y520 = target: PRRC2C, Q9Y520
# Method: as §1
# PSRC1, Q6PGN9 = target: PSRC1, Q6PGN9
# Method: as §1
# PTRH1, Q86Y79 = target: PTRH1, Q86Y79
# Method: as §1
# RAB34 = target: RAB34
# Method: as §1
# RBMX, P38159 = target: RBMX, P38159
# Method: as §1
# RPUSD3, Q6P087 = target: RPUSD3, Q6P087
# Method: as §1
# SURF6, O75683 = target: SURF6, O75683
# Method: as §1
# UTP3, Q9NQZ2 = target: UTP3, Q9NQZ2
# Method: as §1
# WDR46, O15213 = target: WDR46, O15213
# Method: as §1
# YBX1, P67809 = target: YBX1, P67809
# Method: as §1
# YBX3, P16989 = target: YBX3, P16989
# Method: as §1
# ZNF22, P17026 = target: ZNF22, P17026
# Method: as §1
# ZNF512, Q96ME7 = target: ZNF512, Q96ME7
# Method: as §1
# ZNF593, O00488 = target: ZNF593, O00488
# Method: as §1
# ZNF622, Q969S3 = target: ZNF622, Q969S3
# Method: as §1
# ZNF768, Q9H5H4 = target: ZNF768, Q9H5H4
# Method: as §1
binder,measurement,setting,value
B1,PRISMA enrichment of interactor (log2),"ALYREF, Q86V81",5.24 ± 1.1
same,PRISMA enrichment of interactor (log2),"BUD23, O43709",4.31
same,PRISMA enrichment of interactor (log2),"C11orf98, E9PRG8",5.16
same,PRISMA enrichment of interactor (log2),"C19orf53, Q9UNZ5",7.72
same,PRISMA enrichment of interactor (log2),"CBX4, O00257",4.73
same,PRISMA enrichment of interactor (log2),"CCDC137, Q6PK04",7.48
same,PRISMA enrichment of interactor (log2),"CCDC59, Q9P031",6.65
same,PRISMA enrichment of interactor (log2),"CFAP20, Q9Y6A4",4.84
same,PRISMA enrichment of interactor (log2),"CSNK1E, P49674",7.02
same,PRISMA enrichment of interactor (log2),"DIMT1, Q9UNQ2",5.87
same,PRISMA enrichment of interactor (log2),"DNAJA3, Q96EY1",6.05
same,PRISMA enrichment of interactor (log2),"DYNLL1, P63167",4.88
same,PRISMA enrichment of interactor (log2),"EMG1, Q92979",7.29
same,PRISMA enrichment of interactor (log2),"FYTTD1, Q96QD9",5.21
same,PRISMA enrichment of interactor (log2),"LSM14B, Q9BX40",4.54
same,PRISMA enrichment of interactor (log2),"MAP7, Q14244",5.23
same,PRISMA enrichment of interactor (log2),"MAP7D1, Q3KQU3",4.39
same,PRISMA enrichment of interactor (log2),"MAZ, P56270",5.85 ± 1.9
same,PRISMA enrichment of interactor (log2),"MORF4L2, Q15014",7.64
same,PRISMA enrichment of interactor (log2),"MPG, P29372",5.64
same,PRISMA enrichment of interactor (log2),"NFRKB, Q6P4R8",6.96
same,PRISMA enrichment of interactor (log2),"NIFK, Q9BYG3",5.88
same,PRISMA enrichment of interactor (log2),"NOL10, Q9BSC4",5.61
same,PRISMA enrichment of interactor (log2),"NOL12, Q9UGY1",6.84
same,PRISMA enrichment of interactor (log2),"NOP53, Q9NZM5",4.88
same,PRISMA enrichment of interactor (log2),"NTHL1, P78549",4.81
same,PRISMA enrichment of interactor (log2),"NUDT16L1, Q9BRJ7",4.96
same,PRISMA enrichment of interactor (log2),"NUSAP1, Q9BXS6",6.68
same,PRISMA enrichment of interactor (log2),"NXF1, Q9UBU9",8.59
same,PRISMA enrichment of interactor (log2),"POLDIP2, Q9Y2S7",6.55
same,PRISMA enrichment of interactor (log2),"PRR3, P79522",3.8
same,PRISMA enrichment of interactor (log2),"PRRC2A, P48634",5.31
same,PRISMA enrichment of interactor (log2),"PRRC2C, Q9Y520",4.81
same,PRISMA enrichment of interactor (log2),"PSRC1, Q6PGN9",6.86
same,PRISMA enrichment of interactor (log2),"PTRH1, Q86Y79",3.7
same,PRISMA enrichment of interactor (log2),RAB34,4.62
same,PRISMA enrichment of interactor (log2),"RBMX, P38159",5.2
same,PRISMA enrichment of interactor (log2),"RPUSD3, Q6P087",5.13
same,PRISMA enrichment of interactor (log2),"SURF6, O75683",4.73
same,PRISMA enrichment of interactor (log2),"UTP3, Q9NQZ2",4.45
same,PRISMA enrichment of interactor (log2),"WDR46, O15213",4.12
same,PRISMA enrichment of interactor (log2),"YBX1, P67809",4.92
same,PRISMA enrichment of interactor (log2),"YBX3, P16989",5.78
same,PRISMA enrichment of interactor (log2),"ZNF22, P17026",5.25
same,PRISMA enrichment of interactor (log2),"ZNF512, Q96ME7",5.65
same,PRISMA enrichment of interactor (log2),"ZNF593, O00488",4.75
same,PRISMA enrichment of interactor (log2),"ZNF622, Q969S3",6.11
same,PRISMA enrichment of interactor (log2),"ZNF768, Q9H5H4",6.43

# Some of the entries so far, tab-delimited.
binder	measurement	setting	value
B1	PRISMA enrichment of interactor (log2)	CSNK1E, P49674	7.02
same	PRISMA enrichment of interactor (log2)	DNAJA3, Q96EY1	6.05
same	PRISMA enrichment of interactor (log2)	EMG1, Q92979	7.29
same	PRISMA enrichment of interactor (log2)	FYTTD1, Q96QD9	5.21
same	PRISMA enrichment of interactor (log2)	MAP7D1, Q3KQU3	4.39
same	PRISMA enrichment of interactor (log2)	MPG, P29372	5.64
same	PRISMA enrichment of interactor (log2)	NOL10, Q9BSC4	5.61
same	PRISMA enrichment of interactor (log2)	NOL12, Q9UGY1	6.84
same	PRISMA enrichment of interactor (log2)	NUDT16L1, Q9BRJ7	4.96
same	PRISMA enrichment of interactor (log2)	NUSAP1, Q9BXS6	6.68
same	PRISMA enrichment of interactor (log2)	NXF1, Q9UBU9	8.59
same	PRISMA enrichment of interactor (log2)	YBX1, P67809	4.92
same	PRISMA enrichment of interactor (log2)	ZNF593, O00488	4.75
